Primary screen of a compound library

Measurements from “University of Dundee, Small-Polar-MMV Screening Library” (2021), ChEMBL document CHEMBL3988442.

The filed quantity is “Percent Effect” (%).
The record does not define 0% and 100%; most values in the screen are far below 50% and negative numbers occur (in some assays of this library far below -100).
Compounds were drawn at random from those tested, without regard to their results.
A dash means the value is not listed here; it may have been measured.

Mtb growth Cornell: 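Whole-cell assay for inhibitors of Mycobacterium tuberculosis growth, labelled Cornell in the record; the read-out is not stated. The concentration is filed as 10 mM, unlikely as a test dose, so the dose is not known. The record gives no direction; compounds strong in two other growth screens of this library score well above the rest, so higher reads as stronger inhibition. About 53,000 compounds were tested under these conditions; 1.7% (about 900) showed 50% or more at least once.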
Mtb heat-shock: 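Assay on Mycobacterium tuberculosis, filed only as a heat shock assay from Cornell; the read-out is not stated. The concentration is filed as 10 mM, unlikely as a test dose, so the dose is not known. Higher reads as stronger inhibition (inferred: compounds with an IC50 in retests scored well above the rest). About 69,000 compounds were tested under these conditions; 1.4% (about 930) showed 50% or more at least once.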

* CC(C)N(C)Cc1cncc2c1CCN(C(=O)c1ccc[nH]1)C2.Cl.Cl | Mtb growth Cornell: 19.24%; Mtb heat-shock: -37.51%
* CC1COCCN1C(=O)Cc1cc(Cl)c2c(c1)OCCCO2 (stereo unspecified) | Mtb growth Cornell: -2.679%; Mtb heat-shock: -15.88%
* CCc1nc(CNc2ccc(C(=O)NCc3ccco3)cc2C)no1 | Mtb growth Cornell: 27.17%; Mtb heat-shock: 11.16%
* [H][C@]12CN(C(=O)c3cc(C)oc3C)C[C@@]1([H])OCCN(S(C)(=O)=O)C2 | Mtb growth Cornell: -18.52%; Mtb heat-shock: -26.12%
* [H][C@@]12CN(C3CCOCC3)C[C@]1([H])OCC(=O)N2Cc1ccc(F)cc1 | Mtb growth Cornell: -38.07%; Mtb heat-shock: -35.41%
* Cc1ccc(-c2nc(CN3CCOC(Cn4cncn4)C3)cs2)o1 (stereo unspecified) | Mtb growth Cornell: 10.87%; Mtb heat-shock: 9.809%
* CC1CN(C(=O)c2ccnc(-n3cncn3)c2)c2ccccc2S1 (stereo unspecified) | Mtb growth Cornell: -3.845%; Mtb heat-shock: -22.6%
* COc1ccc(CN2CCC3(CC2)CCN(c2ncccn2)CC3)cc1 | Mtb growth Cornell: 8.734%; Mtb heat-shock: 1.823%
* O=S(=O)(c1ccccc1)N1CCN(Cc2ccc(F)cc2Br)CC1 | Mtb growth Cornell: 29.27%; Mtb heat-shock: -4.9%
* Cc1ccc(-c2cc(C(=O)N(C)Cc3noc4c3CCCC4)[nH]n2)s1 | Mtb growth Cornell: -1.35%; Mtb heat-shock: -16.24%
* Clc1ccccc1-c1nnc(CNCCn2cccn2)o1 | Mtb heat-shock: -5.437%
* c1cncc(-c2noc(CCNc3ncnc4c3CCNCC4)n2)c1 | Mtb heat-shock: -23.67%
* Cc1ccc(CNCC2CCc3nnc(C(C)C)n3C2)s1 (stereo unspecified) | Mtb growth Cornell: 14.2%; Mtb heat-shock: -1.48%
* Cc1cc(N2CCC(c3ncc[nH]3)CC2)cc(C)n1 | Mtb growth Cornell: 1.927%; Mtb heat-shock: -20.08%
* COCc1cncc2c1CCN(Cc1ccccn1)C2.O=C(O)C(F)(F)F.O=C(O)C(F)(F)F.O=C(O)C(F)(F)F | Mtb growth Cornell: 14.72%; Mtb heat-shock: 2.555%
* [H][C@]12CC[C@]([H])(CN(C(=O)Cc3ccncc3)C1)N(Cc1ccccc1)C2=O | Mtb heat-shock: -15.51%
* Cc1nn(-c2ccccc2)cc1C(=O)N1CCCC1c1cnn(C)c1 (stereo unspecified) | Mtb growth Cornell: -44.79%; Mtb heat-shock: -6.666%
* CC1CCCN(C(=O)C2CCN(c3snc4ccccc34)CC2)C1 (stereo unspecified) | Mtb growth Cornell: 18.98%; Mtb heat-shock: 14.64%
* CS(=O)(=O)CCC(=O)N(CCc1cccc(F)c1)C1CC1 | Mtb growth Cornell: 25.07%; Mtb heat-shock: 3.742%
* Cc1cccc(C(=O)N2CCN(c3ccc(-n4cccc4)nn3)CC2)c1 | Mtb growth Cornell: -2.697%; Mtb heat-shock: 17.16%
* CCc1cnc(CN(C)C(C)C(=O)N2CCc3ccccc3C2)s1 (stereo unspecified) | Mtb growth Cornell: 17.87%; Mtb heat-shock: 0.6114%
* Cc1cc(C(=O)N2CCCC3(C=Cc4ccccc4O3)CC2)cc(=O)[nH]1 (stereo unspecified) | Mtb growth Cornell: 12.52%; Mtb heat-shock: 22.95%
* CC(=O)N1CCc2nc(N3CCCC3)nc(C)c2C1 | Mtb growth Cornell: 4.133%; Mtb heat-shock: -10.74%
* CNc1cc(C2CCCN2C(=O)CCc2cnn(C)c2C)ccn1 (stereo unspecified) | Mtb growth Cornell: -16.97%; Mtb heat-shock: 23.32%
* CCc1nccn1C1CCCN(C(=O)c2ccc(C(N)=O)cn2)C1 (stereo unspecified) | Mtb growth Cornell: 30.02%; Mtb heat-shock: 3.187%
* COCCN1C[C@@H](C)[C@@]2(COCCN(C(=O)c3cnc(C)cn3)C2)C1.O=C(O)C(F)(F)F | Mtb growth Cornell: 12.98%; Mtb heat-shock: 21.78%
* CC(NC(=O)CCc1ccsc1)c1ccc2c(c1)NC(=O)CO2 (stereo unspecified) | Mtb heat-shock: 10.77%
* CCCN1CCC(CNC(=O)N2CCCC2c2c(C)n[nH]c2C)CC1 (stereo unspecified) | Mtb growth Cornell: -5.212%; Mtb heat-shock: 9.925%
* O=S(=O)(NCCn1ccc(-c2cccs2)n1)C1CC1 | Mtb growth Cornell: -0.5945%; Mtb heat-shock: 15.43%
* Cc1cccc(Nc2cc(C)nc(C3CCCCN3CC(N)=O)n2)n1 (stereo unspecified) | Mtb heat-shock: -15.32%
* Cc1nn(C)c(N(C)C)c1CNC1CCOc2c(F)cccc21 (stereo unspecified) | Mtb heat-shock: 5.479%
* CCOc1ncccc1CNC(=O)c1cccc(C)n1 | Mtb heat-shock: -19.46%
* NC1(C(=O)NCCC2CN(Cc3ccco3)CCO2)CCCC1 (stereo unspecified) | Mtb growth Cornell: -24.9%; Mtb heat-shock: -12.79%
* O=C(CC1CCCC1)N1CCC(c2nnc(-c3ccccn3)o2)CC1 | Mtb growth Cornell: -14.13%; Mtb heat-shock: -12.01%
* COc1cccc(S(=O)(=O)CCN2CCC3(CC2)OCCO3)c1 | Mtb growth Cornell: 49.2%; Mtb heat-shock: 10.64%
* CCOc1ccc(C(=O)Nc2c(C)nc3ccc(Cl)cn3c2=O)cc1 | Mtb growth Cornell: 2.629%; Mtb heat-shock: 17.81%
* CCOc1ccccc1OC1CCN(C(=O)c2cnns2)CC1 | Mtb heat-shock: -15.34%
* CN(C)C(=O)C1(CCCc2ccccn2)CCN1Cc1nccn1C (stereo unspecified) | Mtb growth Cornell: 0.6603%; Mtb heat-shock: 11.75%
* O=C(O)C(F)(F)F.O=C(O)C(F)(F)F.[H][C@@]12CN(C3CCCC3)C[C@H](C(=O)Nc3cccnc3)[C@]1([H])CCO2 | Mtb growth Cornell: 22.94%; Mtb heat-shock: 5.945%
* Nc1nc2c(c(NC(Cn3cccn3)c3ccccc3)n1)CCNCC2 (stereo unspecified) | Mtb growth Cornell: 6.01%; Mtb heat-shock: -16.79%
* CN(CCC(O)c1ccccc1)c1cc(N2CCOCC2)ncn1 (stereo unspecified) | Mtb growth Cornell: 14.33%; Mtb heat-shock: -5.424%
* CCOc1ccc(Cl)cc1CCNC(=O)c1ccc(=O)n(C)c1 | Mtb heat-shock: 11.2%
* CC(Nc1cccc2c1OCCO2)C(=O)NC(N)=O (stereo unspecified) | Mtb growth Cornell: -7.131%; Mtb heat-shock: 4.9%
* Cc1noc(C)c1CN1CCOC2(CCCN(c3nccs3)C2)C1 (stereo unspecified) | Mtb growth Cornell: -8.241%; Mtb heat-shock: 7.732%
* Cc1cc2[nH]c(CN3CCOC(Cc4ccccc4)C3)cc(=O)n2n1 (stereo unspecified) | Mtb growth Cornell: -0.6831%; Mtb heat-shock: -23.9%
* CCCn1c(SCC(N)=O)nnc1-c1csc2c1CCCC2 | Mtb growth Cornell: 14.48%; Mtb heat-shock: 8.816%
* COc1ccc(C(C)NC(=O)NCCCn2cncn2)cc1F (stereo unspecified) | Mtb heat-shock: 1.474%

Once more, the final 3:

| Compound | Mtb growth Cornell | Mtb heat-shock |
|---|---|---|
| `Cc1cc2[nH]c(CN3CCOC(Cc4ccccc4)C3)cc(=O)n2n1` (stereo unspecified) | -0.6831% | -23.9% |
| `CCCn1c(SCC(N)=O)nnc1-c1csc2c1CCCC2` | 14.48% | 8.816% |
| `COc1ccc(C(C)NC(=O)NCCCn2cncn2)cc1F` (stereo unspecified) | - | 1.474% |